Test results as given in US20200399381A1 (I MAB BIOPHARMA US, published 2020).
Results are given in words; binding and its absence hold for the method and conditions named. Some binding calls cover weakened binding; strength is not graded here.

Columns and labels:
[1] = target: T1, human IFNAR-1 protein (form not stated) (human, UniProt P17181 28-436, limits assumed); assay: ELISA
T1 construct: bispecific ELISA
T1 sequence (looked up): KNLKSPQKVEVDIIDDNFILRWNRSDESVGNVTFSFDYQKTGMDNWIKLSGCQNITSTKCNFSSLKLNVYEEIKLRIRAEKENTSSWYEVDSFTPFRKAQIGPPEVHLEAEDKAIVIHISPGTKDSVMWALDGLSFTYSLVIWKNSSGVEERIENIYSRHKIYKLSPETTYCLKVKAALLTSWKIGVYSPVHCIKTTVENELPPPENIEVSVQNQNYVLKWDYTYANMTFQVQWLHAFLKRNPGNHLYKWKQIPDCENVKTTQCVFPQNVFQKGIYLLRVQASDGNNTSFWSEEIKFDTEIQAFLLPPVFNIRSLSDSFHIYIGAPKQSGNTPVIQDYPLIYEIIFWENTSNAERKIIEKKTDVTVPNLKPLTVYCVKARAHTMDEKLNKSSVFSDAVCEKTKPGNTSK

[2] = target: T1, human IFNAR-1 protein (form not stated); assay: ELISA on human IFNAR-1 protein

B1: 8G11 chimeric antibody (antibody, V domains shown)
VH: EVQLQQSGAELVKPGASVKLSCTGFGFNIKDYYMHWVKQRAEQGLEWIGRIDPEDGETKYAPKFQGKATITADTSSNTAYLQVSSLTSEDTAVYYCARGGNFYVMDYWGQGTSVTVSS
VL: DIVMTQSQKFMSTSVGDRVSVTCKASQNVGTNVVWYQQKPGQSPKVLIYSASYRVSGVPDRFTGSGSGTDFTLIISNVQSEDLAEYFCQQKNNYPYTFGGGTKLEIK
notes: also called chimeric 8G11
binding [1]: binds
binding [2]: binds
